Measured data: PubChem BioAssay AID1259331 (Drosophila RNAi Screening Center, 2017)

Screen: 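Knock-downs that alter ATP level after a high zinc chloride dose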 (primary screen)
System: Drosophila S2R+ cells
Reagent: long dsRNA against Drosophila genes
Timing: 5 days (4 days knock-down, then 1 day zinc)
Conditions: zinc chloride at 15 mM final level for 1 day
Detection: 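Total cellular ATP measured by luciferase luminescence as a viability proxy, turned into Z scores from three plate copies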
Scale: mean Z score: higher = more ATP than other wells, better survival under zinc; ATP luminescence: higher = more ATP, more viable cells
Active means: 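a reagent is called a hit when its Z score is above 1.5 or below -1.5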
Meaning of the calls: active = hit, ATP up or down; inactive = not a hit
This is one part, drawn at random, of about 3,100 reagents. In the full data, 126 (4.1%) are marked active. 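Calls are per reagent; zinc was so toxic that few knock-downs lowered ATP further, so most hits raise ATP.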 Raw values are not corrected between plates. A number with no mark means an inactive call. A plus sign joins genes that one reagent is predicted to hit. The record does not give: the amount of reagent.

| Gene | PubChem SID | mean Z score | ATP luminescence, replicate 1 | ATP luminescence, replicate 2 |
| --- | --- | --- | --- | --- |
| CG9643 | SID104180514 | 0.11 | 47600 | 48526 |
| CG9643 | SID104206492 | 0.569 | 67983 | 63273 |
| Npc1b | SID104200280 | -0.169 | 42071 | 38539 |
| Npc1b | SID104217150 | -0.477 | 45760 | 55632 |
| Lrp4 | SID104199910 | -0.485 | 38753 | 41760 |
| Or85c | SID104196558 | -0.176 | 36842 | 54339 |
| Or85c | SID104217408 | -0.0747 | 54424 | 55951 |
| CG40006 | SID104183579 | -0.394 | 36233 | 38187 |
| CG40006 | SID104183606 | -0.375 | 36599 | 40444 |
| Or49a | SID104187285 | -0.0845 | 72517 | 70287 |
| Or49a | SID104217283 | 3.68 (active) | 1.23e5 | 1.13e5 |
| OtopLb | SID104180386 | -0.0985 | 51372 | 58506 |
| OtopLb | SID104205881 | -0.135 | 57820 | 56031 |
| CG13223 | SID104186136 | -0.0404 | 72470 | 68401 |
| CG13223 | SID104217289 | -0.458 | 58951 | 45680 |
| CG4324 | SID104184254 | 0.352 | 55848 | 41085 |
| CG4324 | SID104206074 | 0.144 | 65005 | 57871 |
| GluRIB | SID104190969 | 2.14 (active) | 1.15e5 | 96086 |
| GluRIB | SID104204010 | -0.0516 | 57151 | 55667 |
| CG4459 | SID104195374 | -0.0288 | 35873 | 59654 |
| Trpm | SID104186421 | 0.0305 | 31605 | 33404 |
| Trpm | SID104206141 | 0.0765 | 57837 | 63687 |
| Trpm | SID104207586 | -1 | 49092 | 42662 |
| Gr10b | SID104199269 | -0.366 | 58594 | 61404 |
| Gr10b | SID104207246 | -0.215 | 58626 | 57520 |
| CG10481 | SID104181855 | 0.57 | 60067 | 44960 |
| CG10481 | SID104217114 | 0.062 | 50841 | 48843 |
| Catsup | SID104183080 | -0.0638 | 53687 | 43039 |
| Catsup | SID104204271 | -0.467 | 43622 | 45988 |
| CG6660 | SID104195879 | -0.00119 | 44548 | 47926 |
| Eaat2 | SID104179824 | -0.0366 | 39319 | 44874 |
| Eaat2 | SID104180541 | 0.00775 | 54990 | 57751 |
| Eaat2 | SID104204614 | -0.65 | 41258 | 41822 |
| CG7992 | SID104199862 | -0.468 | 38942 | 38308 |
| Gr98d | SID104194363 | 0.023 | 67063 | 65783 |
| Gr98d | SID104203258 | -0.21 | 48835 | 52967 |
| Or67c | SID104191034 | -0.489 | 64525 | 53636 |
| Or67c | SID104217337 | -0.0732 | 55110 | 55265 |
| Or65b | SID104188601 | -0.103 | 41431 | 41239 |
| Or65b | SID104217294 | 0.897 | 76239 | 76056 |
| CG15706 | SID104186369 | -0.341 | 69975 | 70870 |
| CG15706 | SID104217151 | -0.48 | 47686 | 53910 |
| Zip89B | SID104195920 | -0.128 | 38719 | 48982 |
| Zip89B | SID104208235 | 0.0991 | 59054 | 66857 |
| CG33233 | SID104188031 | -0.187 | 65588 | 66428 |
| CG33233 | SID104217160 | -0.4 | 53516 | 53979 |
| Vmat + CG13330 | SID104186157 | 0.562 | 34107 | 39576 |
| Vmat + CG13330 | SID104207144 | -0.155 | 59253 | 58763 |
| ninaE | SID104196806 | 0.215 | 35599 | 61181 |
| ninaE | SID104204268 | -0.449 | 49572 | 40331 |
| CG42340 | SID104198097 | 6.06 (active) | 1.74e5 | 1.59e5 |
| CG42340 | SID104202839 | -0.0138 | 61541 | 60812 |
| Gr58b | SID104183932 | 0.114 | 56722 | 44028 |
| Gr58b | SID104217312 | -0.213 | 54699 | 60292 |
| CG6927 | SID104198199 | -0.302 | 41685 | 44288 |
| CG6927 | SID104217300 | 0.296 | 62398 | 66514 |
| CG1698 | SID104186432 | -0.212 | 27924 | 29856 |
| CG1698 | SID104203134 | 0.607 | 69567 | 71968 |
| Rift | SID104194122 | 0.582 | 70842 | 80664 |
| CG6574 | SID104195862 | -0.0318 | 36285 | 56259 |
| CG6574 | SID104217269 | -0.216 | 58510 | 57139 |
| trp | SID104196880 | 0.42 | 73083 | 72946 |
| trp | SID104217134 | 3.55 (active) | 1.16e5 | 1.14e5 |
| Ir93a | SID104195004 | 0.336 | 46280 | 57099 |
| Ir93a | SID104206693 | 0.304 | 59620 | 56482 |
| CG7309 | SID104182837 | -0.149 | 51008 | 45200 |
| CG7309 | SID104205796 | 0.0301 | 64868 | 55556 |
| NaPi-III | SID104190685 | -0.448 | 29933 | 27285 |
| NaPi-III | SID104206843 | 0.223 | 65228 | 64439 |
| Afg3l2 | SID104190449 | -0.735 | 23751 | 26002 |
| Afg3l2 | SID104208525 | -0.0656 | 48063 | 45068 |
| CG12446 | SID104200410 | -0.114 | 41668 | 40673 |
| Rh4 | SID104205925 | 0.081 | 65314 | 55796 |
| Syngr | SID104185795 | 2.19 (active) | 1.04e5 | 1.13e5 |
| Syngr | SID104217381 | -0.411 | 45611 | 55522 |
| nAChRbeta3 | SID104180117 | 1.77 (active) | 76136 | 86634 |
| CG5687 | SID104188360 | -0.178 | 30140 | 34124 |
| CG5687 | SID104217196 | -0.162 | 60478 | 54992 |
| mol | SID104181223 | 1.52 (active) | 61054 | 65417 |
| mol | SID104202967 | 0.0845 | 56019 | 60306 |
| Hmgcr | SID104196496 | -0.0327 | 38548 | 58335 |
| PGRP-LD + Pmi | SID104190304 | -0.305 | 29517 | 24319 |
| Tapdelta | SID104185738 | -0.359 | 30027 | 27970 |
| Tapdelta | SID104217106 | 4.39 (active) | 1.11e5 | 1.08e5 |
| Apl | SID104190142 | -0.44 | 67775 | 56499 |
| CG32432 | SID104191536 | -0.157 | 75724 | 57494 |
| Or85f | SID104196561 | -0.0866 | 37673 | 59253 |
| Or85f | SID104217317 | 0.0712 | 55968 | 61158 |

Reagents listed above marked active:
| Gene | PubChem SID | mean Z score | ATP luminescence, replicate 1 | ATP luminescence, replicate 2 |
| --- | --- | --- | --- | --- |
| Or49a | SID104217283 | 3.68 (active) | 1.23e5 | 1.13e5 |
| GluRIB | SID104190969 | 2.14 (active) | 1.15e5 | 96086 |
| CG42340 | SID104198097 | 6.06 (active) | 1.74e5 | 1.59e5 |
| trp | SID104217134 | 3.55 (active) | 1.16e5 | 1.14e5 |
| Syngr | SID104185795 | 2.19 (active) | 1.04e5 | 1.13e5 |
| nAChRbeta3 | SID104180117 | 1.77 (active) | 76136 | 86634 |
| mol | SID104181223 | 1.52 (active) | 61054 | 65417 |
| Tapdelta | SID104217106 | 4.39 (active) | 1.11e5 | 1.08e5 |
